Laboratory results from article PMC7862700.
The entries are a selection whose mix differs from that of the whole data set. At the low end of the ranking the order means little.

Chains of the proteins cited; added tags and fusions are not shown. Lines headed by an entry give the natural chain unless they say otherwise; changes in a name come on top.
UniProt Q01892: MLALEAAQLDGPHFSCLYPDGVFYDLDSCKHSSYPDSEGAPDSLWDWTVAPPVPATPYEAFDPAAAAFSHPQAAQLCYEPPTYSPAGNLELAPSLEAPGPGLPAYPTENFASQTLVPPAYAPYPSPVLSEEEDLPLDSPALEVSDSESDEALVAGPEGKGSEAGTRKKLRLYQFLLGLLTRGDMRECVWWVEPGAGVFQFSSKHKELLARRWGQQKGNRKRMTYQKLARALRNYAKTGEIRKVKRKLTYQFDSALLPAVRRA

These sequences were tested against T1, EHF (UniProt Q9NZC4) (assay: DAPPL (digital affinity profiling via proximity ligation, sequencing)). Conditions: 10 mM Tris-HCl pH 7.5, 50 mM NaCl, 1 mM DTT, 4% glycerol, room temperature, 30 min; GST-TFs on glutathione beads, 16-mer random dsDNA library, 0.1% …; high values mean tight binding; double strand, one strand shown; scale: fold enrichment (6-mer frequency, TF over GST control).
T1 sequence: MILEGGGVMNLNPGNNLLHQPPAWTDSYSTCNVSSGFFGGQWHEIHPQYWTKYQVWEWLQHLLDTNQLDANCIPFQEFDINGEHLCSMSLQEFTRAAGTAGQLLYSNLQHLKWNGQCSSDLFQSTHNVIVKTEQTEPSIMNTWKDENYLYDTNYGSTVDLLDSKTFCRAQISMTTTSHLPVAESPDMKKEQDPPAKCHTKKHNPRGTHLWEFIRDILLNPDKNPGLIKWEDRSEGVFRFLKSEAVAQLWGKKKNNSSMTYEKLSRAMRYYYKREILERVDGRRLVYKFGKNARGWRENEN
CTGGCC showed a binding signal of 1.13.
In the case of CTGGTT, the binding signal is reported as 1.18.
ACTCTT was tested, and the binding signal was 1.2.
With TACCAC the binding signal was 1.23.
CAATTG showed a binding signal of 1.27.
AAGGAA gave a binding signal of 1.48.
GTCTCA gave a binding signal of 1.32.
Sequence GCCTCA has a binding signal of 1.17.
TCACTT was tested, and the binding signal was 1.67.
Work on CGATCC yielded a binding signal of 1.22.
In the case of TGAACC, the binding signal is reported as 1.16.
With AAACCA the binding signal was 1.17.
Sequence GTTTAC has a binding signal of 1.14.
With TGACTC the binding signal was 1.27.
ATAGTA was tested, and the binding signal was 1.22.
In the case of AGTATC, the binding signal is reported as 1.19.
CTCTGC showed a binding signal of 1.57.
With TGATGG the binding signal was 1.31.
GCCTTT showed a binding signal of 1.35.
For TCCGAC, the binding signal was 1.46.
Sequence GGCTCA has a binding signal of 1.23.
CCCACA gave a binding signal of 1.12.
GGTCCT was tested, and the binding signal was 0.974.
In the case of ACAATC, the binding signal is reported as 1.13.
Sequence AAATTC has a binding signal of 1.32.
For AAAGCG, the binding signal was 1.1.
Sequence GTTTCG has a binding signal of 1.33.
GCTTGC showed a binding signal of 1.28.
TGTGTT was tested, and the binding signal was 1.09.
With TTGACA the binding signal was 1.29.
Work on CCATAA yielded a binding signal of 1.05.
Sequence TATTAA has a binding signal of 1.09.
In the case of TTTACG, the binding signal is reported as 1.3.
TCTGAT gave a binding signal of 1.25.
In the case of ACATCA, the binding signal is reported as 1.23.
In the case of TAACGA, the binding signal is reported as 0.994.
For CTACTT, the binding signal was 1.92.
With GACCTT the binding signal was 1.46.

Each sequence was assayed against SPIB (UniProt Q01892) in the same assay as above. Conditions: 10 mM Tris-HCl pH 7.5, 50 mM NaCl, 1 mM DTT, 4% glycerol, room temperature, 30 min; GST-TFs on glutathione beads, 16-mer random dsDNA library, 0.1% …; high values mean tight binding; double strand, one strand shown; scale: fold enrichment (6-mer frequency, TF over GST control).
ACTCTT was tested, and the binding signal was 1.25.
For GCCTCA, the binding signal was 1.25.
CGATCC was tested, and the binding signal was 1.22.
With AAACCA the binding signal was 1.16.
In the case of GTTTAC, the binding signal is reported as 1.09.
TGACTC gave a binding signal of 1.42.
GGCTCA was tested, and the binding signal was 1.24.
With GGTCCT the binding signal was 0.971.
TGTGTT was tested, and the binding signal was 0.95.
TTGACA showed a binding signal of 1.28.
Sequence TCTGAT has a binding signal of 1.31.
